Data reported in patent US5200397A (W. R. Grace & Co.-Conn., priority 1991, dated 1993).

Tests used:
[1] = general procedure: Boc solid-phase peptide synthesis; t-boc-Gly-OCH2 PAM resin; HOBT-ester of t-boc amino acid; conditions: whole synthesis, analytical reverse-phase HPLC, scale of the general procedure 0.1 mmole or 0.5 mmole, TFA salt
[2] = general procedure: Boc solid-phase peptide synthesis; p-methylbenzhydrylamine resin; HOBT-ester of t-boc amino acid; conditions: whole synthesis, analytical reverse-phase HPLC, scale of the general procedure 0.1 mmole or 0.5 mmole, TFA salt

Substance	final HPLC purity [1] [%]	final HPLC purity [2] [%]
PEPTIDE1{W.S.P.C.S.V.T.C.G}$$$$V2.0	90	–
WSPCSVTCG-NH2 (C-amide)	–	90

For some assays here: Strings that start with PEPTIDE1 are HELM notation: dots part the residues, brackets hold end groups and non-standard residues.
